Drawing on publication PMC6677890, this text covers binding for eight molecules.

The chains behind the UniProt entries cited, without tags or fusion partners. Where a name states a change or a piece, a line headed by the entry shows the natural chain unless it says otherwise.
UniProt Q9SZR6: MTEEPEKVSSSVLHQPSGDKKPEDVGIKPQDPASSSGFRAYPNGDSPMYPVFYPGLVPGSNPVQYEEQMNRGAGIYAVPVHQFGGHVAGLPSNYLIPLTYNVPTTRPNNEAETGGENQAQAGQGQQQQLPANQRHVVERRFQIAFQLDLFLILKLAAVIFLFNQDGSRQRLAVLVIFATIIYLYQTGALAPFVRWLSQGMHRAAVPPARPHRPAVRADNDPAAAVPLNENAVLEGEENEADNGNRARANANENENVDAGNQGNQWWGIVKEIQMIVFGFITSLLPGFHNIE
UniProt F4JX49: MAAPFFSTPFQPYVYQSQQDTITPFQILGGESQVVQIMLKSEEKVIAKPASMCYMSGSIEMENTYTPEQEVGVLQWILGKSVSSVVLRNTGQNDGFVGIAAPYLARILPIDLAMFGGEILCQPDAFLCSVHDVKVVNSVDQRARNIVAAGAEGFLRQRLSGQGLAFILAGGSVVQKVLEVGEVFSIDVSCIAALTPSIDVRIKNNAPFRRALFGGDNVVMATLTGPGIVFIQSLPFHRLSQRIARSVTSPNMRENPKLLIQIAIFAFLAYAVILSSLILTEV
UniProt P41377: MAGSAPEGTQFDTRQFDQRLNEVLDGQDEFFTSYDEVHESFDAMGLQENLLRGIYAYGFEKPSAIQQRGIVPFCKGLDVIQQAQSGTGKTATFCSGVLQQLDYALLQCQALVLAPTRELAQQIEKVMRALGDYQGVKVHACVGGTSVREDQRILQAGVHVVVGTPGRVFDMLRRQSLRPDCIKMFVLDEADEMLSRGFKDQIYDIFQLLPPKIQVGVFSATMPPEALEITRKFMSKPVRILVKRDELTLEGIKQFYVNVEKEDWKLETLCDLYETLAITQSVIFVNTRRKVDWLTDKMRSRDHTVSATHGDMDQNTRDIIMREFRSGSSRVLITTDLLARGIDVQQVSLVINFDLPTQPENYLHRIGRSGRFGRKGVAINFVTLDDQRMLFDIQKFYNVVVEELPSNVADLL
UniProt F4JP55: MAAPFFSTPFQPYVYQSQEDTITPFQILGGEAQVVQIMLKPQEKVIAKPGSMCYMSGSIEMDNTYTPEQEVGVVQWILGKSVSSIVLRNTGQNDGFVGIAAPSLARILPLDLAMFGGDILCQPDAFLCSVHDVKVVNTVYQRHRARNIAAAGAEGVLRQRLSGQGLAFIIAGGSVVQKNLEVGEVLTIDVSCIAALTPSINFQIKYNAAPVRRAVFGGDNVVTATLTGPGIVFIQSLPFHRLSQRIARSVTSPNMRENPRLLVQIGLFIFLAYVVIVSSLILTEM

These are yes or no findings as the source states them, for the method shown. Binding seen in cells or lysates may run through a third protein. These calls come from enrichment with a bait or labelling near it, and not all partners need be listed. For some assays here: Where a sequence is shown, tags or fusion partners need not be part of it.

What all share (test): affinity purification with mass spectrometry; total proteins or microsomal fraction of transgenic Arabidopsis seedlings; anti-GFP mAb-agarose, anti-MYC or anti-HA agarose; LC-MS/MS; non-transgenic wild type as negative control
The target in one assay is T1, Hrd1a-GFP (Arabidopsis) (UniProt Q9LW77).
T1 sequence: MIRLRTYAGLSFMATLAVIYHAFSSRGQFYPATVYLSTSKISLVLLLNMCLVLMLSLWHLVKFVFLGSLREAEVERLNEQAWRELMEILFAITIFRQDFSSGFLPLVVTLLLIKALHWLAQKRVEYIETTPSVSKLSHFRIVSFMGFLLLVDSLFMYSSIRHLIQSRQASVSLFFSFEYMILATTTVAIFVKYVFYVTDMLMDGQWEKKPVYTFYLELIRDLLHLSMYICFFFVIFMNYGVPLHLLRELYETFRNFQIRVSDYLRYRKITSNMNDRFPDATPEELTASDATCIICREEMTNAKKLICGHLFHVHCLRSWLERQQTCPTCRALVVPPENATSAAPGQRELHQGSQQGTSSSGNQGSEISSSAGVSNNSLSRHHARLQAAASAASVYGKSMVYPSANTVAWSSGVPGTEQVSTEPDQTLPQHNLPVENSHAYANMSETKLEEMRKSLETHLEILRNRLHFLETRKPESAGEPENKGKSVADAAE

The target of assay [1] is MYC-tagged EBS7 (Arabidopsis) (UniProt Q9SZR6).
In assay [2] the target is HA-tagged EBS7 (Arabidopsis).

With “calcium-dependent lipid-binding protein (At3g14590) (Arabidopsis (endogenous in seedlings))”, in the assay with Hrd1a-GFP (Arabidopsis), the binding result is on record as “binds”.

Consider “Protein Associated With Hrd1-2 (PAWH2) (from UniProt F4JX49)”, for which the binding entry in assay [1] is recorded as “binds”.

As for “translational initiation factor EIF4A (At1g54270) (from UniProt P41377 1-412)”, the binding entry (in assay [1]; with Hrd1a-GFP (Arabidopsis)) was “binds” each time.

“EBS7 (EMS-mutagenized Bri1 Suppressor7) (from UniProt Q9SZR6)”: the binding entry with Hrd1a-GFP (Arabidopsis) is “binds”.

Regarding “Protein Associated With Hrd1-1 (PAWH1) (from UniProt F4JP55)”, in assay [1], the binding result was “binds”.

B1: germin-like protein (At5g20630) (protein, UniProt P94072 21-211)
chain: SVQDFCVADPKGPQSPSGYSCKNPDQVTENDFAFTGLGTAGNTSNIIKAAVTPAFAPAYAGINGLGVSLARLDLAGGGVIPLHTHPGASEVLVVIQGTICAGFISSANKVYLKTLNRGDSMVFPQGLLHFQLNSGKGPALAFVAFGSSSPGLQILPFALFANDLPSELVEATTFLSDAEVKKLKGVLGGTN
As for B1, the binding result (in assay [1]; in the assay with Hrd1a-GFP (Arabidopsis); in assay [2]) was “binds” throughout.

B2: EBS6 (protein, UniProt Q8GWH3 24-282)
chain: DQIFPAHLVGTFSRNNREPKYKIEFLPEDSPFHPGDNLESMVMLDKHGNRFLCYLPKEEKATSGWTSSQQNISTVMMETQQLVKLKTPDELLQPLSEKCLFRQEGWWSYEFCHQKYVRQLHVEDENKIVQEFFLGTFDPEATAAFNQTVSDASTDASQRYHSHVYTNGTTCDLTGSPREVEVRFVCAETRAMVTSITELSTCKYALTVQCPTLCKHPLFQLEKPVSHTIHCNAIPVEEDATRNKEEQAVDESPKMIADS
Take B2: the binding entry (in assay [1]; in the assay with Hrd1a-GFP (Arabidopsis); in assay [2]) was “binds” each time.

B3: Hrd1a (protein, UniProt Q9LW77 1-492)
chain: T1 sequence
In the case of B3, the binding result in assay [1] and in assay [2] was “binds” in each case.
